Experimental data from PMC6850780.
Where two headings read alike, the source gives them in different places. No constants are given. Whether binding was seen depends on the method and setting. Binding seen in cells or lysates may run through a third protein. Some results given as binding are weak or reduced against the parent protein; the word gives no strength. Values belong to the molecule of their own block, whether it stands above or below them.

Protein sequences, listed by entry. Tags and fused reporters are not part of them. Lines headed by an entry give the natural chain unless they say otherwise; changes in a name come on top.
UniProt P62330: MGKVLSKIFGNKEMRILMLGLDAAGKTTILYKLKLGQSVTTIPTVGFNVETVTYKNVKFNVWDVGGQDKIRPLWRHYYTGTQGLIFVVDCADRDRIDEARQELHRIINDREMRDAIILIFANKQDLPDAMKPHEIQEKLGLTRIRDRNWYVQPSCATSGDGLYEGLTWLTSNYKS
UniProt P62331: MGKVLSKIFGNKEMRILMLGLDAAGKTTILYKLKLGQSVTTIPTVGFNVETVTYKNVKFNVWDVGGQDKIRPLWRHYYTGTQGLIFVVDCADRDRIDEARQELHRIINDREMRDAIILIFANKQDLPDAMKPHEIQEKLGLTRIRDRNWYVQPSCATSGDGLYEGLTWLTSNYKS

Columns and labels:
[1] = biological target: ARF6 (T27N)-CFP, mimicking ARF6-GDP (UniProt P62330); assay: co-IP; NG108 cells co-transfected with Halo-tagged Sig-1R constructs and ARF6-CFP constructs; lysis in 50 mM Tris pH 7.4, 150 mM NaCl, 1% Nonidet P-40; IP with rabbit anti-EGFP/EYFP/ECFP and Dynabeads Protein G at 4°C overnight; western blot
[2] = biological target: ARF6 (WT)-CFP, ADP-ribosylation factor 6 wild type fused to cyan fluorescent protein (UniProt P62330); assay: as above
[3] = biological target: ADP-ribosylation factor 6 (ARF6), endogenous in mouse midbrain (mouse (endogenous in midbrain)) (UniProt P62331); assay: co-IP; mouse midbrain lysate (wildtype or Sig-1R KO) in 50 mM Tris pH 7.4, 150 mM NaCl, 0.1% lauryl maltose neopentyl glycol; IP with anti-ARF6 antibody and Dynabeads Protein G at 4°C overnight; blot for Sig-1R; also after in vivo cocaine (15 mg/kg i.p.; co-IP attenuated) with or without BD1063 (10 mg/kg s.c.)
[4] = biological target: ARF6 (T27N)-CFP, mimicking ARF6-GDP (UniProt P62330); assay: co-IP; NG108 cells co-transfected with Halo-tagged Sig-1R constructs and ARF6-CFP constructs; lysis in 50 mM Tris pH 7.4, 150 mM NaCl, 1% Nonidet P-40; IP with rabbit anti-EGFP/EYFP/ECFP and Dynabeads Protein G at 4°C overnight; western blot; remark: listed apart in the source

Molecule: Halo-tagged sigma-1 receptor (Halo-Sig-1R), full-length with N-terminal Halo tag (from UniProt O55242-1 1-223)
binding [2]: binds

Molecule: sigma-1 receptor (Sig-1R), endogenous in mouse midbrain (from UniProt O55242-1 1-223)
binding [3]: binds

The next lines start with the values.

binding [1]: binds
Molecule: Halo-Sig-1R (61-223) (from UniProt O55242-1 61-223) (domain or fragment)

binding [4]: no binding
B1: Sig-1R (1-60)-Halo (domain or fragment, UniProt O55242-1 1-60)
chain: MPWAAGRRWAWITLILTIIAVLIQAAWLWLGTQNFVFSREEIAQLARQYAGLDHELAFSR
